Source: publication PMC9184620, “TAS1553, a small molecule subunit interaction inhibitor of ribonucleotide reductase, exhibits antitumor activity by causing DNA replication stress” (Communications Biology, 2022)
These are yes or no findings as the source states them, for the method shown. Some binding calls cover weakened binding; strength is not graded here. Tags and fused reporters may be left off the sequences shown.

B1: GST-R2 (human RRM2, Abnova Corporation) (protein, UniProt P31350 1-389)
chain: MLSLRVPLAPITDPQQLQLSPLKGLSLVDKENTPPALSGTRVLASKTARRIFQEPTEPKTKAAAPGVEDEPLLRENPRRFVIFPIEYHDIWQMYKKAEASFWTAEEVDLSKDIQHWESLKPEERYFISHVLAFFAASDGIVNENLVERFSQEVQITEARCFYGFQIAMENIHSEMYSLLIDTYIKDPKEREFLFNAIETMPCVKKKADWALRWIGDKEATYGERVVAFAAVEGIFFSGSFASIFWLKKRGLMPGLTFSNELISRDEGLHCDFACLMFKHLVHKPSEERVREIIINAVRIEQEFLTEALPVKLIGMNCTLMKQYIEFVADRLMLELGFSKVFRVENPFDFMENISLEGKTNFFEKRVGEYQRMGVMSSPTENSFTLDADF
B2: N-terminally Ash-tagged hR2 (protein, UniProt P31350-1 1-389)
chain: B1 chain

Legend:
[1] = biological target: T1, 6x His-tagged recombinant human R1 (RRM1) (human) (UniProt P23921); assay: co-IP; recombinant His-R1 and GST-R2 in the reaction mixture of the AlphaLISA assay; precipitated with anti-RRM1 antibody or rabbit IgG; with or without TAS1553; both purified
T1 sequence: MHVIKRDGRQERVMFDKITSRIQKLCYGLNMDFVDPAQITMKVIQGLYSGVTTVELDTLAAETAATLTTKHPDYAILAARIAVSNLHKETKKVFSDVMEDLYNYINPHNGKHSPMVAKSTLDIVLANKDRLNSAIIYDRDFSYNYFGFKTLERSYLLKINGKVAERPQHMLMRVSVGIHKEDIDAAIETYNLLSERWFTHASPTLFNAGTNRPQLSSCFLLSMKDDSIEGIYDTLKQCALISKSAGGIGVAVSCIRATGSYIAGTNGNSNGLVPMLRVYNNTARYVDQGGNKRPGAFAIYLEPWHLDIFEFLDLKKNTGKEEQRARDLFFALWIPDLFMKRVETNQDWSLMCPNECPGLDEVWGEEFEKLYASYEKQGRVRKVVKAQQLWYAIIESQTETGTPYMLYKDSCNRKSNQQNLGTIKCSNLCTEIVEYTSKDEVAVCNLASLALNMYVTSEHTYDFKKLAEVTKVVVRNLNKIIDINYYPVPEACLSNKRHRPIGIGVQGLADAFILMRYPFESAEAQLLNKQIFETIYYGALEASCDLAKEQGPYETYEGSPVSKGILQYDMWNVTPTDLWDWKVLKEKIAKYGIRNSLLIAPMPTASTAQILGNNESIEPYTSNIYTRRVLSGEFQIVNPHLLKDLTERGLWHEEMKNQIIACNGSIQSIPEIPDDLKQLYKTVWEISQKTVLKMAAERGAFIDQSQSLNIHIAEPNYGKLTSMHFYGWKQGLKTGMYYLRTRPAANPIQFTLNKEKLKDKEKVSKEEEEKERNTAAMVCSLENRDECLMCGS

[2] = biological target: T1, 6x His-tagged recombinant human R1 (RRM1) (human); assay: AlphaScreen or HTRF; AlphaLISA: 4.3 ug/mL His-R1 (Nickel Chelate Acceptor beads), 3.3 ug/mL GST-R2 (Glutathione Donor beads), with or without test compound; 50 mmol/L HEPES, 4 mmol/L magnesium acetate, 100 mmol/L KCl, 6 mmol/L DTT, 2 mmol/L ATP, 0.24 mmol/L NADPH, 0.010 mmol/L CDP, 0.1 vol% polysorbate 20, 1 vol% DMSO; 60 min, room temperature; both purified
[3] = biological target: T2, N-terminally AG-tagged hR1 (75-742 aa) (human) (UniProt P23921); assay: Fluoppi (fluorescent foci of AG-tag and Ash-tag fusions); as a4, cells treated with TAS1553 (within 30 minutes, up to 2 h); foci recovered 1 h after washout
T2 sequence: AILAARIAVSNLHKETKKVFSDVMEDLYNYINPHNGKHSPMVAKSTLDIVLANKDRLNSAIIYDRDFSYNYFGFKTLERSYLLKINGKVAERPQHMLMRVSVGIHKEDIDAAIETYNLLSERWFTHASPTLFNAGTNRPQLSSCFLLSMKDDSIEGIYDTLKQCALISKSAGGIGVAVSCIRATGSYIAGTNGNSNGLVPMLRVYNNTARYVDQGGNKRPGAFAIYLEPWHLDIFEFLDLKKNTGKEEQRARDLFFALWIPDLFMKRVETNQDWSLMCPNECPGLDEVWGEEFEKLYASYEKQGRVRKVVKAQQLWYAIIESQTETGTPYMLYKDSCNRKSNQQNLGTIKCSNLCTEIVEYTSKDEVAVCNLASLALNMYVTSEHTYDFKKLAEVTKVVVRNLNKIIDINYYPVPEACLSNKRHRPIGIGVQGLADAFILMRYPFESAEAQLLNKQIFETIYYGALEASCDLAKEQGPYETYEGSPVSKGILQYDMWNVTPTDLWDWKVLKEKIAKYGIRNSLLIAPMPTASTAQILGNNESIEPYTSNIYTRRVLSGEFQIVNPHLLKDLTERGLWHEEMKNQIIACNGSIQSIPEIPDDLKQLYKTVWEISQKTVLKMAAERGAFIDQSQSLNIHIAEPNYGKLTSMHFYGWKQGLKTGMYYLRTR

[4] = biological target: T2, N-terminally AG-tagged hR1 (75-742 aa) (human); assay: Fluoppi (fluorescent foci of AG-tag and Ash-tag fusions); AG-tagged hR1 (75-742) and Ash-tagged hR2 co-transfected into HCC38 or NCI-H460 cells; fluorescence imaging before treatment, or with DMSO or HU

Binder	binding [1]	binding [2]	binding [3]	binding [4]
B1	binds	binds		
B2			no binding (condition: with TAS1553)	binds
